Source: PubChem BioAssay AID1259424 (University of Nebraska Medical Center, 2018)
Shown is one part, drawn at random, of about 14,000 reagents. 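Higher correlation or smaller distance means closer resemblance to KSR1 loss; control wells, including KSR1 knockdowns, recur on many plates.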 Reagents against one gene are numbered here. Not all columns of the deposit are shown. The record does not give: the time to read-out.

- Test: 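Rank knockdowns across the genome by resemblance to the KSR1 depletion profile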 (primary screen)
- Cell system: human HCT116 colon cancer cells
- Knock-down reagent: siRNA pool against human genes, 50 nM
- Detection: 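Six signature mRNAs by branched-DNA multiplex assay, scaled to two housekeeping genes and non-targeting median, log2; matched to mean KSR1 knockdown profile by Pearson correlation and euclidean distance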
- Reading the numbers: mean correlation with KSR1 profile: higher = expression change more like KSR1 knockdown

With knock-down of ZNF273 the results were mean correlation with KSR1 profile 0.107. For SPRY3 the deposit lists mean correlation with KSR1 profile -0.255. After knock-down of C4orf17, the record shows mean correlation with KSR1 profile 0.858. PARG scored mean correlation with KSR1 profile -0.198. Depletion of USP42 gave: mean correlation with KSR1 profile -0.122. After knock-down of SLC22A23 #1, the record shows mean correlation with KSR1 profile 0.197.

For SLC22A23 #2, the entry reads mean correlation with KSR1 profile 0.406. CXCL14 gave mean correlation with KSR1 profile -0.554. Against ANK1, the entry reads mean correlation with KSR1 profile -0.127. ZBTB24 gave mean correlation with KSR1 profile -0.499. Knock-down of SCAND1 gave: mean correlation with KSR1 profile 0.0103. After knock-down of MORF4L1, the record shows mean correlation with KSR1 profile 0.228.

Knock-down of CADPS gave: mean correlation with KSR1 profile -0.266. Knock-down of DBR1 gave: mean correlation with KSR1 profile 0.28. Knock-down of SRSF3 came out at: mean correlation with KSR1 profile -0.346. Depletion of SLC3A1 resulted in: mean correlation with KSR1 profile -0.248. GSG1 gave mean correlation with KSR1 profile 0.371. TSSK6 scored mean correlation with KSR1 profile 0.207.

With knock-down of FBXO11, the screen gave mean correlation with KSR1 profile -0.366. After knock-down of SERPINA5, the record shows mean correlation with KSR1 profile 0.324. With knock-down of GGT1, the record shows mean correlation with KSR1 profile 0.221. Silencing of TOX came out at: mean correlation with KSR1 profile -0.219. After knock-down of DPYSL4, the screen gave mean correlation with KSR1 profile 0.281. With knock-down of ADGRG3, the screen gave mean correlation with KSR1 profile 0.551.

With knock-down of ELL the results were mean correlation with KSR1 profile -0.251. After knock-down of GUCY1A2 the results were mean correlation with KSR1 profile -0.584. With knock-down of WDR33 the results were mean correlation with KSR1 profile -0.421. DMRTA1 showed mean correlation with KSR1 profile -0.56. After knock-down of KLF13 the results were mean correlation with KSR1 profile 0.635. BIRC5 scored mean correlation with KSR1 profile -0.389.

PCDHGA10 scored mean correlation with KSR1 profile 0.145. After knock-down of RNGTT, the record shows mean correlation with KSR1 profile -0.2. MYH1 gave mean correlation with KSR1 profile 0.332. With knock-down of NUBPL, the screen gave mean correlation with KSR1 profile 0.9. Depletion of MYO1D came out at: mean correlation with KSR1 profile 0.192. Depletion of GTF2I resulted in: mean correlation with KSR1 profile 0.761.

Sorted by “mean correlation with KSR1 profile” (descending): some entries from above.
C4orf17: mean correlation with KSR1 profile = 0.858
SLC22A23 #1: mean correlation with KSR1 profile = 0.197
ZNF273: mean correlation with KSR1 profile = 0.107
USP42: mean correlation with KSR1 profile = -0.122
PARG: mean correlation with KSR1 profile = -0.198
SPRY3: mean correlation with KSR1 profile = -0.255
